Target: T1, bovine serum albumin (bovine, UniProt P02769 25-607)
T1 construct: also called BSA
Test: ELISA, BSA (carrier protein) coated on the microtiter plate, detection by Ni-NTA/POD, mean of three wells, A405

Sequences of proteins named here, by UniProt entry; tags and fusion partners are left off. Residues count along the entry.
UniProt P02769, 25-607 limits assumed: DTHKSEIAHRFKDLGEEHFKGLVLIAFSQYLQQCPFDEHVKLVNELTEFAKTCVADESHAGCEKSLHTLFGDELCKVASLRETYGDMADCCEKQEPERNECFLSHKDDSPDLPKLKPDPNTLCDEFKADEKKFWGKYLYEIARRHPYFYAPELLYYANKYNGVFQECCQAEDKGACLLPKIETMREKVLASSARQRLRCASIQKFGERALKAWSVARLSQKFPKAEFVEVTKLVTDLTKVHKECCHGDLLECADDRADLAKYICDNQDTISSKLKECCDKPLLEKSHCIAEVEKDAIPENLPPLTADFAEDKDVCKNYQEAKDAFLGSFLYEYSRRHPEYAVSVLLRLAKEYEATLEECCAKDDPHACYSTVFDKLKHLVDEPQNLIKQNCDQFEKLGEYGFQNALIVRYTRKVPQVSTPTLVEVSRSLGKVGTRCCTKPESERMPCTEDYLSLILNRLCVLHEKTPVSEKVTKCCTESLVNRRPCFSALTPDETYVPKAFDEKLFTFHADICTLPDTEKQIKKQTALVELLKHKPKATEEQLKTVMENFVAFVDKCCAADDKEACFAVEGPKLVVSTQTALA

B1: SPU-3-H13-O (designed binder)
chain: MGIGVKTLTGKTITLEVEPSDTIENVKAKIQDKEGIPPDQQRLAFAGRQLEDGLTLSDYNIFFVTNLHLALLLRALEHHHHHH
notes: Selected against hydrocortisone (a hapten); also called ubiquitin variation SPU-3-H13
B1: no binding (tested: 4 µM).

Reference: patent publication US20060099686A1 (SCIL PROTEINS, published 2006)
